{"source": "patent US7223794B2", "about": "“Arylheteroalkylamine derivatives and their use as inhibitors of nitric oxide synthase” (AstraZeneca AB, priority 2001, dated 2007)", "key": {"[1]": {"biological_target": "T1, Nitric oxide synthase (Mus musculus, UniProt P29477)", "T1 construct": "endogenous in cells; host or cells: J774A-1 murine macrophage cell line, induced with LPS and IFNg; crude cell lysate", "assay": "Screen 1: nitric oxide synthase inhibition, 3H-L-arginine to 3H-L-citrulline conversion, lysate of induced J774A-1 cells", "type": "biochemical, murine", "conditions": "enzyme from LPS/IFNg-induced J774A-1 macrophage lysate; 1 hour at room temperature; read-out: IC50 (concentration of drug substance which gives 50% enzyme inhibition in the assay)", "description": "The activity of compounds of formula (I), or a pharmaceutically acceptable salt thereof, may be screened for nitric oxide synthase inhibiting activity by a procedure based on that of Förstermann et al., Eur. J. Pharm., 1992, 225, 161–165. Nitric oxide synthase converts ^3H-L-arginine into ^3H-L-citrulline which can be separated by cation exchange chromatography and quantified by liquid scintillation counting.\nEnzyme is prepared, after induction, from the cultured murine macrophage cell line J774A-1 (obtained from the laboratories of the Imperial Cancer Research Fund). J774A-1 cells are cultured in Dulbeccos Modified Eagles Medium (DMEM) supplemented with 10% foetal bovine serum, 4 mM L-glutamine and antibiotics (100 units/nl penicillin G, […] streptomycin & […] ainphotericin B). Cells are routinely grown in […] flasks containing 35 ml medium kept at 37° C. and in a humidified atmosphere containing 5% CO2. […]\nLabelled L-citrulline is separated from labelled L-arginine using Dowex AG-50W. […] After allowing the samples to dry the L-citrulline is quantified by scintillation counting.\nIn a typical experiment basal activity is 300 dpm per 75 μl sample which is increased to 1900 dpm in the reagent controls. […] Compounds are tested at a range of concentrations and from the inhibitions is obtained IC50 values are calculated. […]"}, "[2]": {"biological_target": "T2, Recombinant human iNOS (Homo sapiens, UniProt P35228)", "T2 construct": "made in house", "assay": "Screen 2: recombinant human NO synthase inhibition, L-[3H]citrulline formation", "type": "biochemical", "conditions": "recombinant human iNOS expressed in E. coli; 60 min pre-incubation with NADPH; 3 μM [3H]arginine; read-out: IC50 against the iNOS enzyme"}, "[3]": {"test_system": "human form of induced nitric oxide synthase", "assay": "Screen 3: nitrite accumulation (Griess) in cytokine-induced DLD-1 cells", "type": "cell-based", "conditions": "DLD-1 cells induced with gamma-IFN, TNF-alpha, IL-6, IL-1-beta; 5 hours incubation with compound; read-out: IC50 (inhibition of nitrite accumulation)", "description": "The human colorectal carcinoma cell line, DLD-1 (obtained from the European Collection of Animal Cell Culture—cell line number 90102540) was routinely grown in RPMI 1640 supplemented with 10%(v/v) foetal bovine serum, and 2 mM L-glutanmine, at 37° C. in 5% CO2.\nNitric oxide synthase was induced in cells by addition of medium containing human recombinant gamma-IFN (1000 units/ml), TNF-alpha (200 U/ml), IL-6 (200 U/ml) and IL-1-beta (250 U/ml). After incubation for 18 hours at 37° C., the medium was removed and the cells washed with warm phosphate buffered saline. Cells were incubated for a further 5 hours at 37° C./5% CO2 in RPMI 1640 containing 100 μM L-arginine and 100 μM verapamil-HCl in the presence and absence of test compounds.\nNitrite accumulation was determined by mixing an equal volume of culture media with Griess reagent (10 mg/ml sulphanilamide, 1 mg N-(1-naphthyl)ethylenediamine in 1 ml 2.5% (v/v) phosphoric acid). Inhibition in the presence of compounds was calculated relative to the nitrite levels produced by untreated cells. IC50 values were estimated from a semi-log plot of % inhibition versus concentration of compound."}}, "note": "Some of these results come from one statement about several compounds together. At least one structure is not confirmed: it was looked up by name or label, or the drawing left a doubt."}
{"smiles": "N#Cc1cc(F)c(Cl)cc1OC(CNC(=N)CO)c1ccccc1", "note": "(stereo not drawn) [Example 6, N-[2-(5-Chloro-2-cyano-4-fluorophenoxy)-2-phenylethyl]-2-hydroxyethanimidamide hemi ethanedioate]", "values": [{"measurement": "IC50", "setting": "[1]", "value": "< 10", "unit": "µM"}, {"measurement": "IC50", "setting": "[2]", "value": "< 10", "unit": "µM"}, {"measurement": "IC50", "setting": "[3]", "value": "< 100", "unit": "µM"}]}
